The results in this text go back to article PMC10082800.

Amino acid sequences for entries named in this document (tags omitted).
UniProt P51617: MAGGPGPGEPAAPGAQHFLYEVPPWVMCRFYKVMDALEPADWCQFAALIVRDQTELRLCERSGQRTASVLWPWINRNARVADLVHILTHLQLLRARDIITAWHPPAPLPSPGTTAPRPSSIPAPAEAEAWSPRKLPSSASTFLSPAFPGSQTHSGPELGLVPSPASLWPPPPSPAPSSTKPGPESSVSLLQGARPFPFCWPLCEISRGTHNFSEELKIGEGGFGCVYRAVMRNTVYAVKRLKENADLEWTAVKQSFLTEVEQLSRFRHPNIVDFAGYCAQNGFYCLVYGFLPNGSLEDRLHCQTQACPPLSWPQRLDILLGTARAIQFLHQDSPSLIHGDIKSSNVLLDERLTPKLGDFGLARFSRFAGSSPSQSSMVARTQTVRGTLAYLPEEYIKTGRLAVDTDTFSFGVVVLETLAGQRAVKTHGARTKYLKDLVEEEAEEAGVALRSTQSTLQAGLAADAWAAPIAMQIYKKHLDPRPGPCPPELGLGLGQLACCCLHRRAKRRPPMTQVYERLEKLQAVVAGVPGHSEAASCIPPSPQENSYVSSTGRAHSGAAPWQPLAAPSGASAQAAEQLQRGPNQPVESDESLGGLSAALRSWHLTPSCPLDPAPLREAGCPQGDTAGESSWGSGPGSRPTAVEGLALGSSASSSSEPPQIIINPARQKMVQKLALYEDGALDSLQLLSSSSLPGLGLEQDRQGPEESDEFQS

Assay [1] has as its target T1, Peroxiredoxin 1 (PRDX1), endogenous (human (endogenous in U251)) (UniProt Q06830).
T1 sequence: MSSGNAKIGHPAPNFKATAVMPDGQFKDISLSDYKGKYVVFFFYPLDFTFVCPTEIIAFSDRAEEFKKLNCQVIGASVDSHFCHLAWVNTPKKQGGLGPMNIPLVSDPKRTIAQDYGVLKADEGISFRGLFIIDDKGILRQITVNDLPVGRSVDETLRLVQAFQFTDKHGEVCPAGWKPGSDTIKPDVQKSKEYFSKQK
In words: co-IP; endogenous proteins, U251 cell lysate; Pierce Crosslink Magnetic IP/Co-IP kit or Protein A/G PLUS-Agarose; Western blotting. A general note: Immunoblotting shows a protein as a band on a membrane.

Assay [2] has as its target Interleukin-1 receptor associated kinase 1 (IRAK1), endogenous (human (endogenous in U251)) (UniProt P51617). The description is as above.
For assay [3], the target named is T2, Myc-PRDX1 (human) (UniProt Q06830).
T2 sequence: T1 sequence
Put plainly: co-IP; tagged proteins transiently co-transfected into 293T cells; for HECTD3 constructs IP with anti-Myc antibody; Western blotting.

Results are given in words; binding and its absence hold for the method and conditions named. In cells and extracts the contact can be indirect. Some entries that bind do so weakly or less than the wild type. For some assays here: Where a sequence is shown, tags or fusion partners need not be part of it.

B1: E3 ubiquitin ligase HECTD3, endogenous (protein, UniProt Q5T447 1-861)
chain: MAGPGPGAVLESPRQLLGRVRFLAEAARSLRAGRPLPAALAFVPREVLYKLYKDPAGPSRVLLPVWEAEGLGLRVGAAGPAPGTGSGPLRAARDSIELRRGACVRTTGEELCNGHGLWVKLTKEQLAEHLGDCGLQEGWLLVCRPAEGGARLVPIDTPNHLQRQQQLFGVDYRPVLRWEQVVDLTYSHRLGSRPQPAEAYAEAVQRLLYVPPTWTYECDEDLIHFLYDHLGKEDENLGSVKQYVESIDVSSYTEEFNVSCLTDSNADTYWESDGSQCQHWVRLTMKKGTIVKKLLLTVDTTDDNFMPKRVVVYGGEGDNLKKLSDVSIDETLIGDVCVLEDMTVHLPIIEIRIVECRDDGIDVRLRGVKIKSSRQRELGLNADLFQPTSLVRYPRLEGTDPEVLYRRAVLLQRFIKILDSVLHHLVPAWDHTLGTFSEIKQVKQFLLLSRQRPGLVAQCLRDSESSKPSFMPRLYINRRLAMEHRACPSRDPACKNAVFTQVYEGLKPSDKYEKPLDYRWPMRYDQWWECKFIAEGIIDQGGGFRDSLADMSEELCPSSADTPVPLPFFVRTANQGNGTGEARDMYVPNPSCRDFAKYEWIGQLMGAALRGKEFLVLALPGFVWKQLSGEEVSWSKDFPAVDSVLVKLLEVMEGMDKETFEFKFGKELTFTTVLSDQQVVELIPGGAGIVVGYGDRSRFIQLVQKARLEESKEQVAAMQAGLLKVVPQAVLDLLTWQELEKKVCGDPEVTVDALRKLTRFEDFEPSDSRVQYFWEALNNFTNEDRSRFLRFVTGRSRLPARIYIYPDKLGYETTDALPESSTCSSTLFLPHYASAKVCEEKLRYAAYNCVAIDTDMSPWEE
With B1, the binding result in assay [1] and in assay [2] was “binds” throughout.

B2: full-length Flag-HECTD3 (protein, UniProt Q5T447 1-861)
chain: B1 chain
For B2, the binding entry in assay [3] is reported as “binds”.

B3: Peroxiredoxin 1 (PRDX1), endogenous (protein, UniProt Q06830 1-199)
chain: T1 sequence
As to B3, the binding result in assay [2] is “binds”.

B4: Flag-HECT domain of HECTD3 (domain or fragment, UniProt Q5T447 512-857)
chain: YEKPLDYRWPMRYDQWWECKFIAEGIIDQGGGFRDSLADMSEELCPSSADTPVPLPFFVRTANQGNGTGEARDMYVPNPSCRDFAKYEWIGQLMGAALRGKEFLVLALPGFVWKQLSGEEVSWSKDFPAVDSVLVKLLEVMEGMDKETFEFKFGKELTFTTVLSDQQVVELIPGGAGIVVGYGDRSRFIQLVQKARLEESKEQVAAMQAGLLKVVPQAVLDLLTWQELEKKVCGDPEVTVDALRKLTRFEDFEPSDSRVQYFWEALNNFTNEDRSRFLRFVTGRSRLPARIYIYPDKLGYETTDALPESSTCSSTLFLPHYASAKVCEEKLRYAAYNCVAIDTDMS
Consider B4, for which the binding result in assay [3] is “binds”.
